Experimental data published in publication PMC7819943, “Rice protein-binding microarrays: a tool to detect cis-acting elements near promoter regions in rice”.
The list shows a part of the results.

Sequences of proteins named here, by UniProt entry; tags and fusion partners are left off.
UniProt Q0JBA9, entry or part of it: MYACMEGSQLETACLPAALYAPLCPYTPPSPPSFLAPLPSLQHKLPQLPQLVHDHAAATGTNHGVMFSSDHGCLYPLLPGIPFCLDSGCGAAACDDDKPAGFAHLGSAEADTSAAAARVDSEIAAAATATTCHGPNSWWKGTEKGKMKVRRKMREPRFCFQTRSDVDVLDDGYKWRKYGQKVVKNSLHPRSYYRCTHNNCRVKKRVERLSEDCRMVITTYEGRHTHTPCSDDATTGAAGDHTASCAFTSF

Each sequence was assayed against OsWRKY34 (Oryza sativa, UniProt Q0JBA9 1-250) (assay: protein-binding microarray (RPBM); PBS, 2% BSA, 51.3 ng/ul salmon testes DNA, 50 uM zinc acetate, 200 nM TF, 25 C, 1 h; high values mean tight binding). Conditions: protein: recombinant; tags: N-terminal polyhistidine and DsRed monomer fusion (pET32a); label: CyDye5-dUTP incorporated in the synthesized complementary strand; 3' TTTTT single-stranded linker to array surface; dsDNA, one strand shown.
Method in brief: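 Ni–NTA purification followed expression in E. coli BL21-CodonPlus of transcription factors fused N-terminally to a polyhistidine tag and DsRed. At 200 nM in PBS with 2% BSA, salmon testes DNA and 50 µM zinc acetate, the protein was incubated for 1 h at 25 °C with a custom Agilent array that had been primer-extended with Cy5-dUTP and blocked with 2% BSA. After washing, the array was read on an Axon 4000B scanner. The binding signal is per-feature fluorescence intensity in arbitrary units.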

| Sequence | binding signal |
| --- | --- |
| TCTTTTGGGGACCATCTCATCCCACCCATCCTCAAACAAACGGAGTCACCTAGTGCAG | 8990 fluorescence intensity (a.u.) |
| AATCCCATATTTTCCATTATTTTTTGTTTTATTTATGCTCCGGAGTCACCTAGTGCAG | 10600 fluorescence intensity (a.u.) |
| CTCTCTCTCGCGTTCCATTGCCACCACTGCATGCGTCACCCGGAGTCACCTAGTGCAG | 10400 fluorescence intensity (a.u.) |
| TGATGCAGCTGATCCTCTACGCGATCTACCGGAACCACAACGGAGTCACCTAGTGCAG | 9980 fluorescence intensity (a.u.) |
| ATTCTTTACTTACATTTAATCAACTTCTACGGCATATTTTCGGAGTCACCTAGTGCAG | 8890 fluorescence intensity (a.u.) |
| AGTAGTATATGGGCCCACCGTCAGTCACCTGGAATATCCCCGGAGTCACCTAGTGCAG | 9590 fluorescence intensity (a.u.) |
| TCTCTCTCACGTATGTTGTCTGTCCAGAACTCTTTCTAGTCGGAGTCACCTAGTGCAG | 9100 fluorescence intensity (a.u.) |
| CTAGCTGTAGAATTTTACATTTTCCCTGCGGTTTATAACACGGAGTCACCTAGTGCAG | 8070 fluorescence intensity (a.u.) |
| CTGTTTGCGCTGTACTTTTCCTTCTCGCCGCCAGCGTCGCCGGAGTCACCTAGTGCAG | 16000 fluorescence intensity (a.u.) |
| CACCCGGTAGCCTGTTGGGATGCTATACTACTACTACTATCGGAGTCACCTAGTGCAG | 10000 fluorescence intensity (a.u.) |
| TGGCACGCACGCGGTTAGTATTTTCTTTTTTCCCGCACTTCGGAGTCACCTAGTGCAG | 11400 fluorescence intensity (a.u.) |
| GCCAACGTTTGACTGTCCGTTTTATATGAAATTTTTTTATCGGAGTCACCTAGTGCAG | 9300 fluorescence intensity (a.u.) |
| TAAGCATCCGCCGCTGACGTCAGCCGCCACCTCAGACCGCCGGAGTCACCTAGTGCAG | 8300 fluorescence intensity (a.u.) |
| GCTCAGCTCGTTTTGCGTACATTCTCAATCGATTCTTTTCCGGAGTCACCTAGTGCAG | 15600 fluorescence intensity (a.u.) |
| AATCTGTGTGTATATAGCTCATCATCCATGGCGGCTACCACGGAGTCACCTAGTGCAG | 9180 fluorescence intensity (a.u.) |
| CTGTTTGTTCCCCATGGTTCCCAACTCCCCACCTTGTTTCCGGAGTCACCTAGTGCAG | 8180 fluorescence intensity (a.u.) |
| ACTCCATCATCAGTACATACTACATAGTCATCAATCATCACGGAGTCACCTAGTGCAG | 11200 fluorescence intensity (a.u.) |
| TCATGCCCTTGTTTTTTCATGTGATATATCGTTATTTGTCCGGAGTCACCTAGTGCAG | 15600 fluorescence intensity (a.u.) |
| CCTTGTTTTTCTGCTCTGATGTACTTTTGCTGTAACACCTCGGAGTCACCTAGTGCAG | 8900 fluorescence intensity (a.u.) |
| AACATCACCGTCATCAAGGCCACCGTCTCCGCCTCCGCCCCGGAGTCACCTAGTGCAG | 8280 fluorescence intensity (a.u.) |
| TCCTAACCTGCTTAATTCATAATCTGTTCATTGTTCAAGCCGGAGTCACCTAGTGCAG | 10100 fluorescence intensity (a.u.) |
| TCACCTCATCTCCCGATTCCTCCTCACATCGCCACTCTCCCGGAGTCACCTAGTGCAG | 11100 fluorescence intensity (a.u.) |
| CTCTGCTGTTTCTTACGAACCTCCTCACACCAAGTTGAACCGGAGTCACCTAGTGCAG | 8550 fluorescence intensity (a.u.) |
| GCGCCCTCCGACTCCGACGGCTTCTTGTTCTCGTTGACGCCGGAGTCACCTAGTGCAG | 8950 fluorescence intensity (a.u.) |
| AATAGAGGGGAGGGCAAAGGCAAATACACGGGGAAATACACGGAGTCACCTAGTGCAG | 8420 fluorescence intensity (a.u.) |
| ACACTAATTCTCTAGCACCAATGTTATGTTTGAGTTATAACGGAGTCACCTAGTGCAG | 8190 fluorescence intensity (a.u.) |
| AAAATTGTGAGTGTTCCTTTCTTCGTCTCTCGCCTTGTACCGGAGTCACCTAGTGCAG | 12000 fluorescence intensity (a.u.) |

| Sequence | binding signal |
| --- | --- |
| AGGGTTTCGTGTTTTCTTTTGCCTCGGTTGAGGAGTTCTTCGGAGTCACCTAGTGCAG | 10000 fluorescence intensity (a.u.) |
| CCCATCGCCATCACCATCATATCATCCCCTCTCCTCCTCTCGGAGTCACCTAGTGCAG | 8860 fluorescence intensity (a.u.) |
| CTGCGCACATATATCTTTATCTTTACTATTATATCTCTATCGGAGTCACCTAGTGCAG | 9190 fluorescence intensity (a.u.) |
| AGTGACCTCAATTGATCATTCCCTCATCCTTTAGTCAAGCCGGAGTCACCTAGTGCAG | 8920 fluorescence intensity (a.u.) |
| TCTGAAGTTGCGTTTCTTCGGATTGTATAGCGCCCGTCTCCGGAGTCACCTAGTGCAG | 8650 fluorescence intensity (a.u.) |
| TTGGTTAGACCTCTGTTTTTCTCCCACATAATCCCTTTATCGGAGTCACCTAGTGCAG | 9180 fluorescence intensity (a.u.) |
| GCATTTTGGAGTCCGTGCTGCAGCTGGCTATATATCTGTACGGAGTCACCTAGTGCAG | 8560 fluorescence intensity (a.u.) |
| CCCCGCGCTTTTATTACTAGTAGTACTTCTCCTAGCGGCACGGAGTCACCTAGTGCAG | 9010 fluorescence intensity (a.u.) |
| TCACTGCCCGTCTAGCCATGCTATGCTTGGGCTGCTACCCCGGAGTCACCTAGTGCAG | 8060 fluorescence intensity (a.u.) |
| TCAAGTTGTCTGACCATATCATATATCATCATGCATGCACCGGAGTCACCTAGTGCAG | 9480 fluorescence intensity (a.u.) |
| CGCGGCGCCACTATAAATTGGCGCGCCAATTCCTTTCCTTCGGAGTCACCTAGTGCAG | 8460 fluorescence intensity (a.u.) |
| GTGTGTGGATTAGTTGGAAGGATCAGTGCAATTATTGACTCGGAGTCACCTAGTGCAG | 9670 fluorescence intensity (a.u.) |
| GTCTTTTCTATAATATACCGGTAAATTTATTAATTATTTTCGGAGTCACCTAGTGCAG | 8220 fluorescence intensity (a.u.) |
| TGACTTGGAAGTACTTTAGCATTGTCTTATCTCTCTCTATCGGAGTCACCTAGTGCAG | 9050 fluorescence intensity (a.u.) |
| TTTTCATCCACTAGCTCTCTACAGCTTATTATATACTTCCCGGAGTCACCTAGTGCAG | 9030 fluorescence intensity (a.u.) |
| TCTCTTCATCTTCTGATCTGTGTTGGTGTTGCAAAAGAGACGGAGTCACCTAGTGCAG | 10400 fluorescence intensity (a.u.) |
| ATCCATCTTCTTCTTCTTTCTTTCTTTTCTTCCTCTTCTTCGGAGTCACCTAGTGCAG | 10400 fluorescence intensity (a.u.) |
| GCCAATCACTGTACTTCTATTACAATGCACATGCATGCGCCGGAGTCACCTAGTGCAG | 8310 fluorescence intensity (a.u.) |
| ACTATTCACGTTTAACATTTGACCGTTTATCTTATTTGAACGGAGTCACCTAGTGCAG | 9200 fluorescence intensity (a.u.) |
| GTTTTGATTATTTGACATCCTAGTCCACTTTCATATACTTCGGAGTCACCTAGTGCAG | 9910 fluorescence intensity (a.u.) |
| AGTGCGTTTCGTATCCCCTTTTCTCCAGTGACCTGCGGTACGGAGTCACCTAGTGCAG | 8960 fluorescence intensity (a.u.) |
| AGCAGAATCTAGCATGCACGTTTTTTTTATTTTCCTTTTACGGAGTCACCTAGTGCAG | 8580 fluorescence intensity (a.u.) |
| GCTTCTATTATTTTGGACCTTCTGAAATTTCAGTCTGTCTCGGAGTCACCTAGTGCAG | 11700 fluorescence intensity (a.u.) |
| CCACCAGTCCACCACCCGCTTCCCCTATATATCGTATCCCCGGAGTCACCTAGTGCAG | 9380 fluorescence intensity (a.u.) |
| GTCACTGGCATGTGGGTTCCACCTATTCCGGGCCCACATGCGGAGTCACCTAGTGCAG | 8970 fluorescence intensity (a.u.) |
| CTTGGTAATCGTCTAGCTAATTTTGGCAAACTATCCGCCACGGAGTCACCTAGTGCAG | 8490 fluorescence intensity (a.u.) |
| TGTATGTGTCTTAAACTGTTGTTGAATTCTGTGCGTGTAACGGAGTCACCTAGTGCAG | 8300 fluorescence intensity (a.u.) |

Three entries from above in another layout.
Sequence	binding signal
GCATTTTGGAGTCCGTGCTGCAGCTGGCTATATATCTGTACGGAGTCACCTAGTGCAG	8560 fluorescence intensity (a.u.)
CCCCGCGCTTTTATTACTAGTAGTACTTCTCCTAGCGGCACGGAGTCACCTAGTGCAG	9010 fluorescence intensity (a.u.)
TCACTGCCCGTCTAGCCATGCTATGCTTGGGCTGCTACCCCGGAGTCACCTAGTGCAG	8060 fluorescence intensity (a.u.)
